Test results reported in PubChem BioAssay AID504467 (National Center for Advancing Translational Sciences (NCATS), 2011).
Among all 330,000 compounds or so, about 7,700 (2.3%) were called active. The inconclusive results got no clear call from the source; some entries with a clear call stand among them for comparison. Calls come from the whole dose curve; as a rule, active = well fitted inhibition curve with a large enough effect; inconclusive = small, poorly fitted or top-dose-only effect, or effect the other way; inactive = flat fitted curve, though single readings scatter. Potencies of inconclusive entries are doubtful fits and often do not repeat.

Assay: qHTS screen for small molecules that inhibit ELG1-dependent DNA repair in human embryonic kidney (HEK293T) cells expressing luciferase-tagged ELG1; note: nearly all actives have a fitted effect of over 55% in size
Conditions: HEK293T ELG1-luciferase reporter, luminescence, 16 h, DNA damage induced by 5-fluorouridine; activity change, negative = inhibition: at 46.1 µM (top of the series)
How it was run: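 Luminescence from the luciferase reporter, measured 30 min after ONE-Glo reagent at room temperature, was the read-out. Beforehand, 2,000 cells per well were exposed for 16 hr at 37 °C to 5-fluorouridine together with compound or vehicle.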
% is set by controls: 0 for no effect and ±100 for the full control effect; potency is the fitted concentration of half-maximal effect.

Structure (SMILES)	Potency	activity change, negative = inhibition
Cc1nc2scc(C)n2c(=O)c1S(=O)(=O)Nc1ccc(N2CCN(S(C)(=O)=O)CC2)cc1	inconclusive: 23.1 µM [inhibitor, single point]	–
COc1ccc(NC(=S)Nc2cc(-c3ccccc3)[nH]n2)cc1Cl	inconclusive: 29.1 µM [inhibitor, single point]	–
O=C(Nc1ccc(Cl)cc1)NC1CCCCNC1=O (stereo unspecified)	inconclusive: 18.3 µM [activator, single point]	–
CC(C)(C)c1ccc(/C=N/NC(=O)Cc2c[nH]c3ccccc23)cc1	–	inactive: -17.8%
CCOC(=O)c1oc2nc3c(cc2c1N)COC(C)(C)C3	inconclusive: 18.4 µM [activator, single point]	–
COc1ccc(C)cc1-n1ccn(CC(=O)Nc2ccc(Br)cc2F)c(=O)c1=O	–	inactive: -0.626%
Cc1ccc(NC(=O)Nc2cc(C)on2)cc1	inconclusive: 16.4 µM [activator, partial curve]	–
Cc1cccc(/N=C/c2c(O)n(Cc3ccc4c(c3)OCO4)c(=O)c3ccccc23)n1	–	inactive: -17%
CCN(C[C@H]1N[C@@](CC)(C(=O)OC)[C@H]2C(=O)N(C)C(=O)[C@@H]12)C(=O)Nc1ccc(F)cc1	–	inactive: 17.4%
O=C(Nc1cccnc1)c1ccccc1Oc1ccccc1	–	inactive: 2.6%
Cc1ccc(S(=O)(=O)NC(CC(C)C)C(=O)N2CC(C)OC(C)C2)cc1 (stereo unspecified)	–	inactive: -6.34%
c1ccc(-c2nc(SCc3nc4ccccc4[nH]3)c3oc4ccccc4c3n2)cc1	inconclusive: 20.6 µM [inhibitor, partial curve, poor fit]	–
CC(C)(C)C(=O)[C@@H]1[C@@H]2C(=O)N(C3CCCCC3)C(=O)[C@@H]2[C@H]2c3ccccc3C=CN12	–	inactive: 9.56%
CC(=O)N1CCc2cc(S(=O)(=O)NCCC(=O)N3CCN(Cc4ccccc4)CC3)ccc21	inconclusive: 29.1 µM [inhibitor, single point]	–
O=C(COc1ccc(Cl)cc1)N1CCN(Cc2ccc3c(c2)OCO3)CC1	inconclusive: 20.6 µM [inhibitor, single point]	–
Cc1sc2nc(SCC(=O)NCc3ccco3)n(-c3ccccc3)c(=O)c2c1C	inconclusive: 29.1 µM [activator, partial curve, poor fit]	–
Cc1ccc(CSCCNC(=O)CSc2ccccc2)cc1	–	inactive: 12.2%
CNc1ccc(Br)cc(C(=O)/C=C/c2ccc(OC)cc2OC)c1=O	inconclusive: 29.1 µM [inhibitor, single point]	–
Cn1c(=O)c2c(nc(CN3CCN(C(=O)c4ccco4)CC3)n2CC(=O)C(C)(C)C)n(C)c1=O	–	inactive: -7.81%
COC(=O)CCC(=O)NC(=S)Nc1ccc(S(=O)(=O)Nc2cc(OC)nc(OC)n2)cc1	–	inactive: -9.48%
CCc1ccc(C(=O)NC2CCCCC2)s1	inconclusive: 6.51 µM [activator, partial curve]	–
Cc1cccc(N2CCN(C(=O)c3cccs3)CC2)c1C	–	inactive: -12.1%
N#C/C(=C(/O)c1ccc(C(=O)c2ccccc2)cc1)c1nc2ccccc2[nH]1	–	inactive: -1.88%
CC(=O)c1sc(NC(=O)CS(=O)(=O)c2ccc(F)cc2)nc1C	inconclusive: 32.6 µM [activator, partial curve, poor fit]	–

Filtered by structure: those above with two or more sulfur atoms.
Structure (SMILES)	Potency	activity change, negative = inhibition
Cc1nc2scc(C)n2c(=O)c1S(=O)(=O)Nc1ccc(N2CCN(S(C)(=O)=O)CC2)cc1	inconclusive: 23.1 µM [inhibitor, single point]	–
Cc1sc2nc(SCC(=O)NCc3ccco3)n(-c3ccccc3)c(=O)c2c1C	inconclusive: 29.1 µM [activator, partial curve, poor fit]	–
Cc1ccc(CSCCNC(=O)CSc2ccccc2)cc1	–	inactive: 12.2%
COC(=O)CCC(=O)NC(=S)Nc1ccc(S(=O)(=O)Nc2cc(OC)nc(OC)n2)cc1	–	inactive: -9.48%
CC(=O)c1sc(NC(=O)CS(=O)(=O)c2ccc(F)cc2)nc1C	inconclusive: 32.6 µM [activator, partial curve, poor fit]	–

(cont.)

Structure (SMILES)	Potency	activity change, negative = inhibition
Cc1cc(Cl)ccc1NC(=S)NCC(C)C	–	inactive: 0.0766%
CC(C)(C)[C@@H]1COC(=O)[C@@H](Cc2ccc(F)cc2)CC/C=C\C[C@@H](CC(=O)N(CCO)Cc2ccccc2)C(=O)N1	inconclusive: 20.6 µM [inhibitor, single point]	–
COc1ccc(CNC(=O)COC(=O)CN2C(=O)NC3(CCCC3)C2=O)cc1	–	inactive: 16.1%
CNc1snc(C)c1C(=O)OC(C)C(=O)Nc1ccc(F)cc1 (stereo unspecified)	inconclusive: 35.5 µM [inhibitor, single point]	–
Cn1nc(-c2ccccn2)nc2c(=O)n(C)c(=O)nc1-2	inconclusive: 29.1 µM [inhibitor, single point]	–
Cc1c(N(C)C(=O)c2ccc3c(c2)OCO3)c(=O)n(-c2ccccc2)n1C	inconclusive: 3.26 µM [activator, single point]	–
CCOC(=O)c1sc(NC(=O)Cc2ccccc2OC)nc1C	–	inactive: -13.8%
O=C(Cc1cccc2ccccc12)N1CCN(c2ncccn2)CC1	inconclusive: 18.3 µM [inhibitor, single point]	–
CNC(=O)c1cc(S(=O)(=O)Nc2ccc(C)cc2C)ccc1C	–	inactive: -5.51%
NC(=O)c1sc2nc3c(cc2c1N)CCCCCC3	inconclusive: 7.3 µM [activator, partial curve]	–
CC(=O)c1cccc(N(C(=O)c2ccccn2)C(C(=O)NC2CCCCC2)c2ccccc2)c1 (stereo unspecified)	–	inactive: 1.46%
OC(COc1cccc2ccccc12)CN1CCCC1 (stereo unspecified)	–	inactive: 4.1%
Cc1ccc(C(=O)NNc2ncnc3ccccc23)cc1	inconclusive: 5.8 µM [activator, partial curve]	–
Cc1nc(CC(=O)NNS(=O)(=O)c2cccc(Cl)c2Cl)cs1	–	inactive: 12.3%
COc1cc(C2C(C#N)=C(N)Oc3cc(C)n(CCN4CCOCC4)c(=O)c32)cc(OC)c1OC (stereo unspecified)	inconclusive: 20.6 µM [activator, single point]	–
N#C/C(=C\c1cccc([N+](=O)[O-])c1)c1ccccn1	inconclusive: 14.6 µM [activator, partial curve]	–
COc1ccc(C(=O)NCCS(=O)(=O)N2CCCCCC2)cc1	–	inactive: 18.3%
O=C(c1cc(Br)ccc1O)N1CCN(S(=O)(=O)Cc2ccccc2)CC1	inconclusive: 29.1 µM [inhibitor, single point]	–
O=C(N/N=C/c1ccc(O)c(O)c1O)/C(=C/c1ccc([N+](=O)[O-])cc1)NC(=O)c1ccccc1	inconclusive: 7.31 µM [inhibitor, partial curve, poor fit]	–
CC(C)CC(NC(N)=O)C(=O)Nc1ccc(Oc2ccccc2)cc1 (stereo unspecified)	inconclusive: 29.1 µM [inhibitor, single point]	–
CC(C)(C)S(=O)(=O)/C(C#N)=N/Nc1ccc(S(C)(=O)=O)cc1	–	inactive: 18.2%
CC(C)n1cc(C(=O)N2CCCC(Nc3ccc(F)c(F)c3)C2)cn1 (stereo unspecified)	inconclusive: 23.1 µM [activator, single point]	–
Cc1occc1C(=O)N=Nc1c(O)n(C)c2ccccc12	inconclusive: 2.59 µM [activator, full curve]	–
Cc1ccccc1-c1cc(C(=O)NCC2CC2)nn1CC1CC(c2cccc([N+](=O)[O-])c2)=NO1 (stereo unspecified)	inconclusive: 20.6 µM [inhibitor, single point]	–

Structure (SMILES)	Potency	activity change, negative = inhibition
CC(C)CC(=O)Nc1nnc(SCC(=O)NC2CCCCC2)s1	inconclusive: 6.51 µM [activator, single point]	–
CCCc1nnc(NC(=O)c2cccnc2)s1	inconclusive: 18.3 µM [activator, single point]	–
O=C(O)c1ccccc1C(=O)N1CCN(c2cccc(Cl)c2)CC1	inconclusive: 16.4 µM [activator, partial curve, poor fit]	–
COc1ccc(/C=N/NC(=O)c2ccc3nc[nH]c3c2)c(OC)c1OC	–	inactive: -1.27%
CC1(C)CC(=O)c2c(O)cc(OCc3ccc(Br)cc3)cc2O1	inconclusive: 4.61 µM [activator, full curve]	–
NC1=NC[C@H](c2ccccc2)N1CCc1cccc(F)c1	–	inactive: -2.47%
Cc1ccc(NC(=O)/C(C#N)=C/c2cccs2)c(C)c1	inconclusive: 4.61 µM [activator, partial curve]	–
COc1ccc(NC(=O)Nc2cccc3c2O[C@H](CN(C)C(=O)Nc2ccc4c(c2)OCO4)[C@@H](C)CN([C@H](C)CO)C3=O)cc1	inconclusive: 6.51 µM [inhibitor, partial curve]	–
Cc1ccc2nc(NC(=O)C3CCN(S(=O)(=O)c4ccc5c(c4)oc(=O)n5C)CC3)sc2c1	active: 10.3 µM	–
Cc1ccc(-c2noc(CN3CCCCC3)n2)cc1	inconclusive: 20.6 µM [activator, partial curve]	–
CCCCc1ccc(-c2nc(-c3ccncc3)no2)cc1	inconclusive: 2.59 µM [activator, partial curve]	–
Cc1ccc(NC(=S)NCCc2c[nH]c3ccccc23)cc1	inconclusive: 20.6 µM [activator, single point]	–
Cc1cccc(N2CCN(C(=O)CCS(=O)(=O)c3ccc4c(c3)NC(=O)C(C)S4)CC2)c1C (stereo unspecified)	inconclusive: 5.17 µM [inhibitor, full curve]	–
Cn1c(N)c(C(=O)CSc2nnc3n2CCCCC3)c(=O)n(C)c1=O	–	inactive: 0%
Cn1c(COc2ccccc2)nnc1SCc1cc(=O)[nH]c2ccccc12	inconclusive: 5.8 µM [inhibitor, partial curve, poor fit]	–
Cc1ccc(-c2cc(C(=O)N3CCCc4ccccc43)c3ccccc3n2)cc1	inconclusive: 18.4 µM [inhibitor, single point]	–
CC(C)CC1(C(=O)NCc2cc(F)cc(C(F)(F)F)c2)C=CCN1C(=O)c1ccccc1 (stereo unspecified)	–	inactive: -11.4%
CCCCOc1ccc(C(=O)NNC(=S)NC(=O)CC)cc1	inconclusive: 29.1 µM [activator, single point]	–
CCCc1nc2ccc(NC(=O)c3ccco3)cc2c(=O)n1Cc1ccccc1Cl	active: 18.4 µM	–
Cc1ccc(/C=N/NC(=O)c2csc(C)c2)o1	inconclusive: 16.4 µM [activator, single point]	–
COc1ccc(C(=O)COC(=O)CN2C(=O)C3CC=CCC3C2=O)c(OC)c1 (stereo unspecified)	–	inactive: 0%
NS(=O)(=O)c1ccc(NC(=O)COC(=O)c2ccc([N+](=O)[O-])s2)cc1	–	inactive: 11.4%
COC(=O)c1c(S(N)(=O)=O)c2ccccc2n1C	–	inactive: 1.67%
